This is one part of the list.
Key:
Test in all cases: log2 fold change, soluble protein after heating vs DMSO (PISA); higher = thermal stabilisation; K562 cells, 10 uM, 30 min; active = over 0.2 and 3.5 SD of the protein, either way, in both replicates (recomputed)
saracatinib = compound: CN1CCN(CCOc2cc(OC3CCOCC3)c3c(Nc4c(Cl)ccc5c4OCO5)ncnc3c2)CC1 [saracatinib]
Outline: (§1)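 Quantification of soluble protein used TMTpro 16plex LC-MS/MS, with channel sums equalised. Samples were the supernatant after 21,000xg for 90 min of pooled aliquots from K562 cells (2×10^6 cells/mL) treated with 10 μM compound for 30 min, heated for 3 min over 48°C-58°C, and extracted in PBS with 0.5% NP-40 at 4°C. Values, from duplicates, describe thermal stability against control samples on a log2 fold-change scale.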

Amino acid sequences for entries named in this document (tags omitted). A change or cut given only in a name is not applied to a line headed by its entry.
UniProt Q8N3U4: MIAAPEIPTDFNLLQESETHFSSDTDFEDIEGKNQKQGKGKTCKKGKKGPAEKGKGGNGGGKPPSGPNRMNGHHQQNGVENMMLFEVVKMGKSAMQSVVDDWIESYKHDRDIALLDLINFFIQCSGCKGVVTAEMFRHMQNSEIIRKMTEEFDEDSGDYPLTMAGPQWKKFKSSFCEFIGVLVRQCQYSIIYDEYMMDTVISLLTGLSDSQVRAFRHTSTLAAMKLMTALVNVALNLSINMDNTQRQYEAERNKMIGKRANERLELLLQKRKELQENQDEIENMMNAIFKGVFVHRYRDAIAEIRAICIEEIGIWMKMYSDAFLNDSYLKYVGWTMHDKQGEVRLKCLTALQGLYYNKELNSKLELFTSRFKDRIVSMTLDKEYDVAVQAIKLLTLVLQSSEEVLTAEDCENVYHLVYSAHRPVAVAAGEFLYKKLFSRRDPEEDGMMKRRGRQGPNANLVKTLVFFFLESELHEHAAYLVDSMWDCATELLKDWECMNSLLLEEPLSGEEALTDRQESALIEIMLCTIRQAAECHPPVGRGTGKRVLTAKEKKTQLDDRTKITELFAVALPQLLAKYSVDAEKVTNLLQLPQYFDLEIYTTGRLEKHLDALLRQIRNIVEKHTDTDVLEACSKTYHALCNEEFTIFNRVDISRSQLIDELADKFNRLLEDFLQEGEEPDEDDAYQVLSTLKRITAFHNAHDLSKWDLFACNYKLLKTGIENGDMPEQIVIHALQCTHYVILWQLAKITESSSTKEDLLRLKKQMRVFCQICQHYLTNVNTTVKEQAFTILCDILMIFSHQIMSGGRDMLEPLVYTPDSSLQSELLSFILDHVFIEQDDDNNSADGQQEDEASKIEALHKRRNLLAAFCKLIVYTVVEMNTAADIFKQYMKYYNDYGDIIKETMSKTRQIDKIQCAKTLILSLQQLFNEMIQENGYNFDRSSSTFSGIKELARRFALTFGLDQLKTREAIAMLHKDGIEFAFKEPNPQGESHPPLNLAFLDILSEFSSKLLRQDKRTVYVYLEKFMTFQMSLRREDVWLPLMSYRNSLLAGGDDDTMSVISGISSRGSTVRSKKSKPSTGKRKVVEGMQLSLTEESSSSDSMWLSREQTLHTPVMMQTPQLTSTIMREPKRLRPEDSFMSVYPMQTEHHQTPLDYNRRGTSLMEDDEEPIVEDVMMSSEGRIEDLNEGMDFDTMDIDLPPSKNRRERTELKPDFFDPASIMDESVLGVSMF
UniProt Q5W111: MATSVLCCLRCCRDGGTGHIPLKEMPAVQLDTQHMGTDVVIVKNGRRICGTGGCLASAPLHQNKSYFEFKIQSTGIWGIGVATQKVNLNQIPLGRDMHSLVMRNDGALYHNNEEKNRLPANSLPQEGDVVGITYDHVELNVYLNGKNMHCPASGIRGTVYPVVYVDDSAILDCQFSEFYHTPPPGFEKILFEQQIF
UniProt Q69YQ0: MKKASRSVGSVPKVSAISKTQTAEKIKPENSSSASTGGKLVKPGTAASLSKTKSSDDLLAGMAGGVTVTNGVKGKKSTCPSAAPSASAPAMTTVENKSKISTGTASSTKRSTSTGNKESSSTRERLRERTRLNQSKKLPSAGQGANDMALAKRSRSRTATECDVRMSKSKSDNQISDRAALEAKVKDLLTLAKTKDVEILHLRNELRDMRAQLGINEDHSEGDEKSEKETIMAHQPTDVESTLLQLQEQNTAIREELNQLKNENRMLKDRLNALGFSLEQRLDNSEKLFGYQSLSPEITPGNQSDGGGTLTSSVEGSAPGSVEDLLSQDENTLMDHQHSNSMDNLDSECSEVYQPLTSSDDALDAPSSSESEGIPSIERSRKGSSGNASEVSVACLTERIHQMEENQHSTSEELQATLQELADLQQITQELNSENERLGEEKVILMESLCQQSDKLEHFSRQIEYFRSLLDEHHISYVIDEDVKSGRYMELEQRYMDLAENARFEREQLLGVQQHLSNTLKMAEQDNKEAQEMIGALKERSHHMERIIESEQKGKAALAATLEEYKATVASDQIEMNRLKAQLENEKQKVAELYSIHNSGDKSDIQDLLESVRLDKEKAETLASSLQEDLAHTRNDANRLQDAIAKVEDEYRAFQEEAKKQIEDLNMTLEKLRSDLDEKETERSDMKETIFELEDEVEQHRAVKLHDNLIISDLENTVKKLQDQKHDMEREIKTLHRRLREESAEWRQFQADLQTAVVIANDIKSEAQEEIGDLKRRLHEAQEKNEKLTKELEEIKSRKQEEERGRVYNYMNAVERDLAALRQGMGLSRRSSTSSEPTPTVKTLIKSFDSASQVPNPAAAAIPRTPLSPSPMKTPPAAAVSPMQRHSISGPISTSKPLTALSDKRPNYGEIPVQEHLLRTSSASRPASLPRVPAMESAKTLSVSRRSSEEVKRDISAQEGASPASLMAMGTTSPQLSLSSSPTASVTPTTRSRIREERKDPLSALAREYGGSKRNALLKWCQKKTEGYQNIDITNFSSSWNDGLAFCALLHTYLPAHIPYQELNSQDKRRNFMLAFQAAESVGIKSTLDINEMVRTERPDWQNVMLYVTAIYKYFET
UniProt Q15831: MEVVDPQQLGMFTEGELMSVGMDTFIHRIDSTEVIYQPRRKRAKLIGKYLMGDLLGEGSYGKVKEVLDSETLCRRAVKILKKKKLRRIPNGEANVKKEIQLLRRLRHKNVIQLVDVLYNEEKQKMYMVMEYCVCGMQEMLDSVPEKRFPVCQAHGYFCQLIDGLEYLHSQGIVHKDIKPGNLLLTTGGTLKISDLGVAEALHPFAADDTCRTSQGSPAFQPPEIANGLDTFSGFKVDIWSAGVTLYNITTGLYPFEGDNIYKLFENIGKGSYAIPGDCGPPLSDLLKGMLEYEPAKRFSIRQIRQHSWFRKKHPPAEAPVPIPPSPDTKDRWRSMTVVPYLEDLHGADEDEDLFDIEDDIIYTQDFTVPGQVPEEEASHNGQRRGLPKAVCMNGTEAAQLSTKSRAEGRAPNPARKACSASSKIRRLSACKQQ
UniProt P61011: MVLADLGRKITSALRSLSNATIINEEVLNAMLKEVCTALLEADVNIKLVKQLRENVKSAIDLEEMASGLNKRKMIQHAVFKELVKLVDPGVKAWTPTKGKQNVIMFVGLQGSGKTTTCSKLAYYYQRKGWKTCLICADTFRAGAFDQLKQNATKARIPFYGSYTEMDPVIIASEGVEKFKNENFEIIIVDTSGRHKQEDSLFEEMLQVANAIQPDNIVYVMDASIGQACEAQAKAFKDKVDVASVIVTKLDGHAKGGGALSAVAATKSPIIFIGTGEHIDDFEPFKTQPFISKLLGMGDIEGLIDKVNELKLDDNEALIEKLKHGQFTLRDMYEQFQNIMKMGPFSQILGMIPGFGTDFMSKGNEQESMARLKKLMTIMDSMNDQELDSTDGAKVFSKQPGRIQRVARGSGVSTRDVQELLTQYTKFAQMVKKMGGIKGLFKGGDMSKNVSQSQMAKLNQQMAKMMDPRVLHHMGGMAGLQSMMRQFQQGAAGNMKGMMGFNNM
UniProt Q08945, whole entry, looked up: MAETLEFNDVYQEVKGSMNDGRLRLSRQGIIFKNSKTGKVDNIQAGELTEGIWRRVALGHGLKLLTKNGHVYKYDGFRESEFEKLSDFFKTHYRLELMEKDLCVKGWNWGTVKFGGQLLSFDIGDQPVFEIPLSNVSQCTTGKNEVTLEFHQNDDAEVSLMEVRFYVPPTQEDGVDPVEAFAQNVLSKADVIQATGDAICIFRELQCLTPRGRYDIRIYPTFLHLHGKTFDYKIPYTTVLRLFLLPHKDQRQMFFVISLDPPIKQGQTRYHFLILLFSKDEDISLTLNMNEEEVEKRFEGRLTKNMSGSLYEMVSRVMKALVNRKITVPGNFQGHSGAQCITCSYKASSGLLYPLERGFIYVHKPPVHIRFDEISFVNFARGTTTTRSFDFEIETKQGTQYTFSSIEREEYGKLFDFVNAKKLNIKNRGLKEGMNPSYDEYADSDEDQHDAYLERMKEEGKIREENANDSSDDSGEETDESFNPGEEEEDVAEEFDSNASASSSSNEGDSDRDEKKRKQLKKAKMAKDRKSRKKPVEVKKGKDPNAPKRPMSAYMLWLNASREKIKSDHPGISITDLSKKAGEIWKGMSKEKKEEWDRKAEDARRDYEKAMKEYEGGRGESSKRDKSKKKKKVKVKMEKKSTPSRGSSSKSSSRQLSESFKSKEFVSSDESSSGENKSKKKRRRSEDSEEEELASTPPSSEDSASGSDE
UniProt P30626: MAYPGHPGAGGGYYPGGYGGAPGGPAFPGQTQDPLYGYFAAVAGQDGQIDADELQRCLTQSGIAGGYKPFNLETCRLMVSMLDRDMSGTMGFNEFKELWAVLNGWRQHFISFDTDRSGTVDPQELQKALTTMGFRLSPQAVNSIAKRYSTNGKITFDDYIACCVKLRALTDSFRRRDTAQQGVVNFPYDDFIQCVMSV
UniProt Q8TCT8: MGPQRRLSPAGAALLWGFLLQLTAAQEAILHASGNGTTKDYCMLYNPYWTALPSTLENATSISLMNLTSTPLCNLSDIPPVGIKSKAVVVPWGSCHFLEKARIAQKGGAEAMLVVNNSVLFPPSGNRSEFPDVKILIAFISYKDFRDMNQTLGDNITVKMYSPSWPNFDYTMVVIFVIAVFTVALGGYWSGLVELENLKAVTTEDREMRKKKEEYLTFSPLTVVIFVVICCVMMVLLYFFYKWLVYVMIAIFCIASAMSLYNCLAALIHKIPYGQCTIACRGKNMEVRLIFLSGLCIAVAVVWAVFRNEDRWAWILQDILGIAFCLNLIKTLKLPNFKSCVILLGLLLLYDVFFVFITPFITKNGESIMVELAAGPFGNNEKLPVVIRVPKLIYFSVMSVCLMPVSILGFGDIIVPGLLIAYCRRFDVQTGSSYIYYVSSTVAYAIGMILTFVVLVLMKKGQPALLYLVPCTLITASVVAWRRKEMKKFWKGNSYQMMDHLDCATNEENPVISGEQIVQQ
UniProt Q9HD15: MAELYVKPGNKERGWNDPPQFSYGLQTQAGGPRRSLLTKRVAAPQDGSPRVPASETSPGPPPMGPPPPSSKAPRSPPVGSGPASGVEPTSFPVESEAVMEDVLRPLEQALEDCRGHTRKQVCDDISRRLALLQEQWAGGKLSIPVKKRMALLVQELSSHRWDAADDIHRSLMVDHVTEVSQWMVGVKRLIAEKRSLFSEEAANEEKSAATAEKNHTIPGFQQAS
UniProt Q6ZUB1: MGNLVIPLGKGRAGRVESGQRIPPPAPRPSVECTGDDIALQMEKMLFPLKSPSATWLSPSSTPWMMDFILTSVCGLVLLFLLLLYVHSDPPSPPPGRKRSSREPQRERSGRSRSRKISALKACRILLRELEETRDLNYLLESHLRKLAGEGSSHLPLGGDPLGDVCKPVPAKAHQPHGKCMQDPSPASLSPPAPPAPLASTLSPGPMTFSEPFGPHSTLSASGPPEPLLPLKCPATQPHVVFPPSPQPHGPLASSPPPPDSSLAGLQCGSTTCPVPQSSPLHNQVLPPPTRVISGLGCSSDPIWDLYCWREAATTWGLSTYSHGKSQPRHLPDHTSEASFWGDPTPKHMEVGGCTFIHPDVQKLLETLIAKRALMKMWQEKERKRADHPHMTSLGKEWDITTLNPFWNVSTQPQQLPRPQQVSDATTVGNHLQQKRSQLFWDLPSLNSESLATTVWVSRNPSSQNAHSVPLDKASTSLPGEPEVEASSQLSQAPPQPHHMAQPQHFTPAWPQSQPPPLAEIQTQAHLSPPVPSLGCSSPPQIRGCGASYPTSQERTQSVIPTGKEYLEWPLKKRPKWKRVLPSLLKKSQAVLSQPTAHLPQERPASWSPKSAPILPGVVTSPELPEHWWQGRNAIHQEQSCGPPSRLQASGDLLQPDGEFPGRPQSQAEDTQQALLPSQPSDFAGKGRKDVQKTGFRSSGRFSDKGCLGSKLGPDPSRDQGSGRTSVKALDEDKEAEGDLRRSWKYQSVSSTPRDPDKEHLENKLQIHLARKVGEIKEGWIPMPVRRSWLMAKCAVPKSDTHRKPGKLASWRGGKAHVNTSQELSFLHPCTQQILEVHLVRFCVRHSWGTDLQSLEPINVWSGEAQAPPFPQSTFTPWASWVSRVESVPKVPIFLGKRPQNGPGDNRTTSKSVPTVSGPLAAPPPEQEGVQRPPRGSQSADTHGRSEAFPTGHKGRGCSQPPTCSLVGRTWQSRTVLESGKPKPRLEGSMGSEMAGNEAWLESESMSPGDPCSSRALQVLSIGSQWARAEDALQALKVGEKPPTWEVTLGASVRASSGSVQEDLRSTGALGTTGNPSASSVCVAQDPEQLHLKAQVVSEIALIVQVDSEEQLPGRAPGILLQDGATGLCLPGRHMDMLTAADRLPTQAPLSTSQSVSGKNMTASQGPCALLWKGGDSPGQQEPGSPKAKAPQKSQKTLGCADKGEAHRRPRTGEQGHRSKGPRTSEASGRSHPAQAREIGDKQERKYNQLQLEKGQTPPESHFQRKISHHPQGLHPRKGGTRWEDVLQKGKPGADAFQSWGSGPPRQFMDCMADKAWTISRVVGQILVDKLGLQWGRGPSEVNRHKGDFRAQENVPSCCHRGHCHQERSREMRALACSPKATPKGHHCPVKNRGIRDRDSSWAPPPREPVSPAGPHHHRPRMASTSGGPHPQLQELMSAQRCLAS

sotrastaurin = compound: CN1CCN(c2nc(C3=C(c4c[nH]c5ccccc45)C(=O)NC3=O)c3ccccc3n2)CC1 [sotrastaurin]
Outline: as §1

alvocidib = compound: CN1CC[C@H](c2c(O)cc(O)c3c(=O)cc(-c4ccccc4Cl)oc23)[C@H](O)C1 [alvocidib]
Outline: as §1

Tubastatin A = compound: CN1CCc2c(c3ccccc3n2Cc2ccc(C(=O)NO)cc2)C1 [Tubastatin A]
Outline: as §1

[1] = compound: CNC(=O)C1=CC=CC=C1NC2=NC(=NC=C2Cl)NC3=C(C=C(C=C3)N4CCOCC4)OC
Outline: as §1

defactinib = compound: CNC(=O)c1ccc(Nc2ncc(C(F)(F)F)c(NCc3nccnc3N(C)S(C)(=O)=O)n2)cc1 [defactinib]
Outline: as §1

rucaparib = compound: CNCc1ccc(-c2[nH]c3cc(F)cc4c3c2CCNC4=O)cc1 [rucaparib]
Outline: as §1

[2] = compound: CNc1nc(-c2ccc3c(N)n[nH]c3c2)cc(N2C[C@@H](C(=O)NC3CCCCC3)CC[C@H]2C)n1
Outline: as §1

encorafenib = compound: COC(=O)N[C@@H](C)CNc1nccc(-c2cn(C(C)C)nc2-c2cc(Cl)cc(NS(C)(=O)=O)c2F)n1 [encorafenib]
Outline: as §1

[3] = compound: COC(=O)[C@H](CCSC)NC(=O)C1=C(C=C(C=C1)NC[C@H](CS)N)C2=CC=CC=C2
Outline: as §1

[4] = compound: COC1=CC=C(C=C1)CN2C=CC3=C2C=C(C=C3)C(=O)NO
Outline: as §1

filanesib = compound: CON(C)C(=O)N1N=C(c2cc(F)ccc2F)S[C@@]1(CCCN)c1ccccc1 [filanesib]
Outline: as §1

zotarolimus = compound: CO[C@H]1C[C@@H]2CC[C@@H](C)[C@@](O)(O2)C(=O)C(=O)N2CCCC[C@H]2C(=O)O[C@H]([C@H](C)C[C@@H]2CC[C@H](n3cnnn3)[C@H](OC)C2)CC(=O)[C@H](C)/C=C(\C)[C@@H](O)[C@@H](OC)C(=O)[C@H](C)C[C@H](C)/C=C/C=C/C=C/1C [zotarolimus]
Outline: as §1

idasanutlin = compound: COc1cc(C(=O)O)ccc1NC(=O)[C@@H]1N[C@@H](CC(C)(C)C)[C@](C#N)(c2ccc(Cl)cc2F)[C@H]1c1cccc(Cl)c1F [idasanutlin]
Outline: as §1

alisertib = compound: COc1cc(Nc2ncc3c(n2)-c2ccc(Cl)cc2C(c2c(F)cccc2OC)=NC3)ccc1C(=O)O [alisertib]
Outline: as §1

[5] = compound: COc1cc2nc(-c3cc(F)ccc3O)nc(N[C@@H]3CNC[C@H]3C(C)(C)O)c2cc1OC
Outline: as §1

gefitinib = compound: COc1cc2ncnc(Nc3ccc(F)c(Cl)c3)c2cc1OCCCN1CCOCC1 [gefitinib]
Outline: as §1

[6] = compound: COc1cccc2cc(-c3nc([C@H]4CC[C@H](C(=O)O)CC4)n4ncnc(N)c34)[nH]c12
Outline: as §1

lapatinib = compound: CS(=O)(=O)CCNCc1ccc(-c2ccc3ncnc(Nc4ccc(OCc5cccc(F)c5)c(Cl)c4)c3c2)o1 [lapatinib]
Outline: as §1

pictilisib = compound: CS(=O)(=O)N1CCN(Cc2cc3nc(-c4cccc5[nH]ncc45)nc(N4CCOCC4)c3s2)CC1 [pictilisib]
Outline: as §1

| Target | log2 fold change (saracatinib) | log2 fold change (sotrastaurin) | log2 fold change (alvocidib) | log2 fold change (Tubastatin A) | log2 fold change [1] | log2 fold change (defactinib) | log2 fold change (rucaparib) | log2 fold change [2] | log2 fold change (encorafenib) | log2 fold change [3] | log2 fold change [4] | log2 fold change (filanesib) | log2 fold change (zotarolimus) | log2 fold change (idasanutlin) | log2 fold change (alisertib) | log2 fold change [5] | log2 fold change (gefitinib) | log2 fold change [6] | log2 fold change (lapatinib) | log2 fold change (pictilisib) |
| --- | --- | --- | --- | --- | --- | --- | --- | --- | --- | --- | --- | --- | --- | --- | --- | --- | --- | --- | --- | --- |
| SPIN1 (UniProt Q9Y657) | inactive: 0.02 | inactive: -0.025 | inactive: 0.005 | inactive: -0.158 | inactive: 0.031 | inactive: -0.045 | inactive: 0.019 | inactive: -0.003 | inactive: -0.032 | inactive: 0.044 | inactive: -0.045 | inactive: 0.084 | inactive: -0.025 | inactive: 0.077 | inactive: -0.058 | inactive: 0.039 | inactive: 0.054 | inactive: 0.044 | inactive: -0.011 | inactive: 0.061 |
| STAG2 (UniProt Q8N3U4) | inactive: 0.021 | inactive: -0.02 | inactive: -0.1 | inactive: 0.017 | inactive: -0.018 | inactive: -0.106 | inactive: -0.031 | inactive: -0.005 | inactive: 0.051 | inactive: -0.003 | inactive: 0.108 | inactive: 0.023 | inactive: 0.003 | inactive: -0.008 | inactive: -0.01 | inactive: 0.007 | inactive: 0.026 | inactive: 0.02 | inactive: -0.012 | inactive: 0.027 |
| SRM (UniProt P19623) | inactive: 0.024 | inactive: 0.027 | inactive: -0.076 | inactive: -0.019 | inactive: 0.036 | inactive: -0.023 | inactive: 0.022 | inactive: 0.04 | inactive: -0.026 | inactive: 0.017 | inactive: -0.001 | inactive: -0.118 | inactive: 0.012 | inactive: -0.086 | inactive: -0.117 | inactive: -0.005 | inactive: 0.01 | inactive: 0.025 | inactive: -0.003 | inactive: 0.073 |
| SPRYD7 (UniProt Q5W111) | inactive: -0.003 | inactive: -0.05 | inactive: -0.089 | inactive: -0.03 | inactive: 0 | inactive: -0.07 | inactive: -0.022 | inactive: 0.112 | inactive: -0.01 | inactive: -0.064 | inactive: 0.007 | inactive: -0.029 | inactive: 0.061 | inactive: -0.043 | inactive: -0.098 | inactive: 0.119 | inactive: 0.03 | inactive: -0.016 | inactive: -0.013 | inactive: 0.063 |
| SPECC1L (UniProt Q69YQ0) | inactive: 0.041 | inactive: 0.051 | inactive: 0.021 | inactive: 0 | inactive: -0.004 | inactive: -0.017 | inactive: -0.019 | inactive: 0.015 | inactive: 0.003 | inactive: -0.083 | inactive: -0.029 | inactive: 0.013 | inactive: 0.076 | inactive: 0.058 | inactive: -0.036 | inactive: 0.039 | inactive: -0.005 | inactive: 0.026 | inactive: -0.061 | inactive: 0.056 |
| SSBP1 (UniProt Q04837) | inactive: -0.031 | inactive: 0.038 | inactive: 0.053 | inactive: 0.032 | inactive: -0.001 | inactive: 0.045 | inactive: 0.013 | inactive: -0.022 | inactive: -0.001 | inactive: 0.017 | inactive: -0.11 | inactive: 0.086 | inactive: -0.002 | inactive: 0.051 | inactive: -0.073 | inactive: -0.003 | inactive: -0.005 | inactive: -0.009 | inactive: 0.033 | inactive: 0.041 |
| STK11 (UniProt Q15831) | inactive: 0.049 | inactive: 0.047 | inactive: -0.032 | inactive: -0.001 | inactive: -0.06 | inactive: -0.091 | inactive: -0.039 | inactive: -0.036 | inactive: 0.026 | inactive: 0.05 | inactive: 0.007 | inactive: 0.026 | inactive: -0.011 | inactive: -0.029 | inactive: -0.044 | inactive: -0.03 | inactive: 0.009 | inactive: 0.045 | inactive: -0.004 | inactive: 0.151 |
| SRP54 (UniProt P61011) | inactive: -0.007 | inactive: -0.032 | inactive: -0.04 | inactive: 0.036 | inactive: 0.004 | inactive: -0.061 | inactive: 0.01 | inactive: -0.008 | inactive: 0.052 | inactive: -0.037 | inactive: 0.02 | inactive: -0.013 | inactive: 0.035 | inactive: -0.031 | inactive: -0.031 | inactive: 0.035 | inactive: 0.01 | inactive: -0.039 | inactive: -0.003 | inactive: 0.004 |
| SSRP1 (UniProt Q08945) | inactive: 0.01 | inactive: -0.049 | – | inactive: 0.099 | inactive: -0.052 | active: -0.23 | inactive: -0.038 | inactive: -0.045 | inactive: 0.048 | inactive: -0.05 | inactive: 0.118 | inactive: 0.023 | inactive: 0.036 | inactive: -0.005 | inactive: -0.037 | inactive: -0.05 | inactive: 0.028 | inactive: -0.014 | inactive: 0.008 | inactive: -0.026 |
| SRI (UniProt P30626) | inactive: -0.034 | inactive: -0.017 | – | inactive: 0.039 | inactive: 0.034 | inactive: -0.108 | inactive: -0.012 | inactive: -0.021 | inactive: -0.03 | inactive: -0.022 | inactive: -0.015 | inactive: 0.053 | inactive: 0.133 | inactive: -0.031 | inactive: -0.035 | inactive: -0.109 | inactive: 0.01 | inactive: 0.023 | inactive: 0.008 | inactive: -0.04 |
| SSBP3 (UniProt Q9BWW4) | inactive: -0.038 | inactive: -0.054 | inactive: -0.086 | inactive: 0.007 | inactive: 0.016 | inactive: -0.078 | inactive: 0.089 | inactive: -0.026 | inactive: -0.024 | inactive: 0.077 | – | inactive: 0.024 | inactive: -0.044 | inactive: 0 | inactive: -0.002 | inactive: -0.12 | inactive: 0.003 | inactive: 0.067 | inactive: -0.16 | inactive: 0.046 |
| SPATS2L isoform 3 (UniProt Q9NUQ6) | inactive: 0.009 | inactive: 0.028 | inactive: 0.327 | – | – | – | – | inactive: 0.115 | – | – | – | inactive: 0.088 | inactive: 0.039 | inactive: 0.486 | – | – | – | – | – | – |
| SPPL2A (UniProt Q8TCT8) | inactive: 0.062 | inactive: -0.004 | inactive: 0.032 | inactive: -0.052 | inactive: 0.049 | inactive: 0.037 | inactive: -0.014 | inactive: -0.063 | inactive: -0.069 | inactive: 0.109 | inactive: -0.061 | inactive: -0.059 | inactive: -0.064 | inactive: 0.078 | inactive: -0.06 | inactive: -0.047 | – | inactive: 0.129 | inactive: 0.003 | inactive: -0.011 |
| SRPK2 isoform 2 (UniProt P78362) | inactive: -0.074 | inactive: -0.049 | inactive: 0.34 | inactive: 0.145 | inactive: -0.011 | inactive: 0.361 | inactive: 0.278 | inactive: 0.146 | inactive: 0.061 | inactive: -0.057 | inactive: -0.081 | inactive: 0.308 | inactive: 0 | inactive: 0.213 | inactive: -0.052 | inactive: -0.067 | inactive: -0.073 | inactive: -0.146 | inactive: 0.119 | inactive: -0.081 |
| SPN (UniProt P16150) | inactive: -0.005 | inactive: 0.189 | inactive: 0.007 | inactive: 0.001 | inactive: -0.044 | inactive: 0.006 | inactive: -0.016 | inactive: 0.058 | inactive: -0.007 | inactive: 0.044 | inactive: -0.013 | inactive: 0.079 | inactive: -0.072 | inactive: 0.034 | inactive: -0.068 | inactive: 0.042 | inactive: -0.003 | inactive: 0.035 | inactive: -0.068 | inactive: 0 |
| SRA1 (UniProt Q9HD15) | inactive: 0.01 | inactive: -0.005 | inactive: -0.012 | inactive: 0.028 | inactive: -0.025 | inactive: -0.059 | inactive: -0.02 | inactive: -0.021 | inactive: -0.044 | inactive: 0.009 | inactive: -0.032 | inactive: 0.002 | inactive: 0.015 | inactive: -0.012 | inactive: 0.009 | inactive: 0.015 | inactive: -0.014 | inactive: 0.041 | inactive: -0.037 | inactive: 0.054 |
| SPATA31E1 (UniProt Q6ZUB1) | inactive: -0.247 | inactive: 0.103 | inactive: 0.178 | – | – | inactive: 0.13 | inactive: -0.075 | inactive: -0.149 | inactive: 0.021 | inactive: 0.157 | inactive: -0.422 | inactive: 0.135 | inactive: -0.189 | inactive: 0.165 | inactive: 0.246 | inactive: 0.153 | inactive: 0.019 | inactive: 0.195 | inactive: -0.381 | inactive: 0.389 |

Quoted at random: 2 entries already listed.

| Target | log2 fold change (saracatinib) | log2 fold change (sotrastaurin) | log2 fold change (alvocidib) | log2 fold change (Tubastatin A) | log2 fold change [1] | log2 fold change (defactinib) | log2 fold change (rucaparib) | log2 fold change [2] | log2 fold change (encorafenib) | log2 fold change [3] | log2 fold change [4] | log2 fold change (filanesib) | log2 fold change (zotarolimus) | log2 fold change (idasanutlin) | log2 fold change (alisertib) | log2 fold change [5] | log2 fold change (gefitinib) | log2 fold change [6] | log2 fold change (lapatinib) | log2 fold change (pictilisib) |
| --- | --- | --- | --- | --- | --- | --- | --- | --- | --- | --- | --- | --- | --- | --- | --- | --- | --- | --- | --- | --- |
| SRM (UniProt P19623) | inactive: 0.024 | inactive: 0.027 | inactive: -0.076 | inactive: -0.019 | inactive: 0.036 | inactive: -0.023 | inactive: 0.022 | inactive: 0.04 | inactive: -0.026 | inactive: 0.017 | inactive: -0.001 | inactive: -0.118 | inactive: 0.012 | inactive: -0.086 | inactive: -0.117 | inactive: -0.005 | inactive: 0.01 | inactive: 0.025 | inactive: -0.003 | inactive: 0.073 |
| SPECC1L (UniProt Q69YQ0) | inactive: 0.041 | inactive: 0.051 | inactive: 0.021 | inactive: 0 | inactive: -0.004 | inactive: -0.017 | inactive: -0.019 | inactive: 0.015 | inactive: 0.003 | inactive: -0.083 | inactive: -0.029 | inactive: 0.013 | inactive: 0.076 | inactive: 0.058 | inactive: -0.036 | inactive: 0.039 | inactive: -0.005 | inactive: 0.026 | inactive: -0.061 | inactive: 0.056 |

Source: the supplement of paper PMC10849652
